Assay results published in patent US20260174674A1, “INCOMPLETE AUTOPHAGY INDUCTION FOR THE TREATMENT OF CANCER” (Northwestern University, priority 2022, published 2026).
Where a name gives a salt, the structure may show the parent alone.

Test system: BT474-Br cells
Experiment: Reverse phase protein array (RPPA)
Assay type: cell-based
Conditions: 10 μM

For `CN1CCCC(CC2c3ccccc3Sc3ccccc32)C1` (centres unmarked) [metixene hydrochloride], the “number of proteins with significant alteration in expression or phosphorylation (p<0.001)” value (12 hours) was 52 and the “number of proteins with significant alteration in expression or phosphorylation (p<0.001)” value (24 hours) was 26.
